Test results published in PubChem BioAssay AID504444 (National Center for Advancing Translational Sciences (NCATS), 2011).
Hit rate of the full screen: of about 360,000 compounds, about 7,500 (2.1%) were called active. Inconclusive results, whose numbers are uncertain, are shown with a selection of clear calls. The call rests on the fitted dose curve; in most records, active means well fitted inhibition curve with a large enough effect; inconclusive means small, poorly fitted or top-dose-only effect, or effect the other way; inactive means flat fitted curve, though single readings scatter. Potencies beside an inconclusive call are fits to weak or partial responses and may not hold up.

Assay: Nrf2 qHTS screen for inhibitors; further: nearly all actives have a fitted effect of over 60% in size
Conditions: A549 ARE-Fluc reporter, luciferase luminescence, 18-24 h; activity change, negative = inhibition: at 46 µM (top of the series)
Summary of the method: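 Nrf2 function is reported as luminescence of an ARE-controlled luciferase in A549 cells. Compounds were tested at several concentrations, and a CellTiter-Fluor read on the same wells flagged cytotoxicity.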
On the % scale 0 is the no-effect control and ±100 the full control effect; potency means the concentration at half of the fitted maximal effect.

| SMILES | Potency | activity change, negative = inhibition |
| --- | --- | --- |
| COc1ccc2c(Cl)c(C(=O)N/N=C/c3c(C)[nH]c4ccccc34)sc2c1 | inactive |  |
| Cc1ccc(S(=O)(=O)N(CC(=O)N/N=C/c2cccc(Cl)c2)c2cccc3cccnc23)cc1 | inconclusive: 29.1 µM [falling, single point] |  |
| COc1ccc(C2NC(=O)NC(O)(C(F)(F)F)C2C(=O)c2ccccc2)cc1OC (centres undefined) | inactive |  |
| O=S(=O)(c1ccc(Cl)cc1)N1CCC(O)(c2cccnc2)CC1 | inconclusive: 1.03 µM [falling, full curve, poor fit] |  |
| Fc1cccc(Cl)c1Cn1nnc2c(NCc3ccncc3)ncnc21 | active: 23.1 µM |  |
| CCCn1cnc2cc(NC(=O)c3ccco3)ccc21 | inconclusive: 2.31 µM [activator, partial curve] |  |
| CCCOc1ccc(N2C(=O)CC(S/C(N)=N/N=C(\C)c3cccs3)C2=O)cc1 (centres undefined) | inconclusive: 29.1 µM [falling, single point] |  |
| CC(C)CCNC(=O)CN(C(=O)Cn1nnc(-c2ccccc2F)n1)c1cccc2c1CCCC2 | inactive |  |
| O=C(NCC(O)c1ccccc1)c1ccccc1 (centres undefined) | inconclusive: 7.31 µM [activator, partial curve] |  |
| Cc1cccc2cc(CN(Cc3ccccc3)Cc3nnnn3Cc3ccccc3)c(=O)[nH]c12 | inconclusive: 25.9 µM [falling, single point] |  |
| Cc1nn(C)c(C)c1CNC(=O)Nc1ccc(Cl)cc1 | inconclusive: 4.61 µM [activator, partial curve, poor fit] |  |
| COc1ccccc1NC(=O)CSc1nncn2c1cc1sccc12 | inactive |  |
| CSc1nc(N(CCO)CCO)c2sc3nc(-c4ccco4)c4c(c3c2n1)CCC4 | inconclusive: 5.17 µM [falling, partial curve, poor fit] |  |
| Cc1cc(C)cc(NC(=O)COC(=O)c2cc(C)oc2C)c1 | inconclusive: 20.6 µM [falling, partial curve, poor fit] |  |
| O=C(/C=C/c1ccco1)NCC(=O)N/N=C/c1ccccc1[N+](=O)[O-] | inactive |  |
| Cc1ccc([N+](=O)[O-])c(OCCCN2CCC(Cc3ccccc3)CC2)c1 | inconclusive: 7.31 µM [activator, partial curve, poor fit] |  |
| Cc1ccccc1CNC(=O)c1ccc2nc(SCc3ccc(F)cc3)n(C)c2c1 | inconclusive: 14.6 µM [falling, partial curve] |  |
| CC(=O)N1c2ccc(S(=O)(=O)N(C)CC(=O)NCc3ccccc3)cc2CC1C (centres undefined) | inconclusive: 1.46 µM [falling, partial curve, poor fit] |  |
| CC(=O)NCc1ccc(S(=O)(=O)NC(C)CCc2ccccc2)cc1 (centres undefined) | inconclusive: 0.461 µM [falling, full curve, poor fit] |  |
| Cc1ccc(C2c3sc(=O)[nH]c3SC3C4CC(C5C(=O)N(C(C)C(=O)O)C(=O)C45)C23)cc1 (centres undefined) | inconclusive: 0.0046 µM [falling, full curve, poor fit] |  |
| CC(C)OC(=O)NC(C)(C)COC(=O)Nc1cccc(Cl)c1 | active: 10.3 µM |  |
| COc1ccc(C(=O)N/N=C/c2ccccn2)cc1OC | inconclusive: 32.6 µM [falling, partial curve, poor fit] |  |

| SMILES | Potency | activity change, negative = inhibition |
| --- | --- | --- |
| Cc1nc(SCC(=O)NCc2ccco2)c2oc3ccccc3c2n1 | inconclusive: 14.6 µM [falling, partial curve, poor fit] |  |
| Cc1cc(SCCOc2ccc(Br)cc2)nc(N)n1 | inconclusive: 29.1 µM [falling, single point] |  |
| CC(=O)c1ccc(OCc2cc([N+](=O)[O-])cc3c2OCOC3)cc1 | inconclusive: 3.26 µM [falling, partial curve, poor fit] |  |
| CCSc1nnc(NC(=O)CSc2nc3c(c(=O)n2C)SC(C)C3)s1 (centres undefined) | inconclusive: 18.4 µM [falling, partial curve, poor fit] |  |
| COc1ccc(Nc2nc3ccccc3nc2NS(=O)(=O)c2cccs2)c(OC)c1 | inconclusive: 29.1 µM [falling, single point] |  |
| Cc1c(CC(=O)NCCCCCC(=O)O)c(=O)oc2cc3occ(-c4ccccc4)c3cc12 | inconclusive: 32.6 µM [activator, single point] |  |
| COc1cc(/C=N/NC(=O)c2nnn(-c3nonc3N)c2C(C)C)ccc1O | inconclusive: 25.9 µM [falling, partial curve, poor fit] |  |
| CSc1nc(Nc2ccc(F)cc2)cc(-c2ccccc2)n1 | inconclusive: 20.6 µM [falling, single point] |  |
| O=S(=O)(Nc1c(Br)cc(Br)c2cccnc12)C1CC1 | inactive |  |
| CCOc1ccc(-c2nn(-c3ccccc3)cc2C2NC(=O)NC(C)=C2C(=O)OC(C)C)cc1 (centres undefined) | inconclusive: 18.4 µM [falling, single point] |  |
| CCOC(=O)C1(Cc2ccccc2)CCN(Cc2ccc(COC)o2)CC1 | inconclusive: 13 µM [falling, partial curve, poor fit] |  |
| CC[n+]1ccc(C)c2cc(P(=O)(c3ccccc3)c3ccccc3)ccc21 | inconclusive: 20.6 µM [activator, partial curve, poor fit] |  |
| CCOC(=O)CN(C(=O)Cn1nnc2ccccc21)C(C(=O)NCCOC)c1ccccc1C (centres undefined) | inconclusive: 2.06 µM [falling, partial curve, poor fit] |  |
| Cc1ccc(CN2CC(C(=O)Nc3cc(C)ccn3)CC2=O)cc1 (centres undefined) | inconclusive: 2.06 µM [activator, single point] |  |
| CCCNS(=O)(=O)c1cc2c3c(c1)CCN3C(=O)CC2 | inconclusive: 2.06 µM [falling, partial curve, poor fit] |  |
| Cc1ccc(NC(=O)CN(C)C(=O)c2cccc(S(=O)(=O)N3CCc4ccccc43)c2)cc1 | inconclusive: 23.1 µM [falling, single point] |  |
| CCn1c(=O)cc(SCC(=O)NCc2cccc(Cl)c2)c2ccccc21 |  | inactive: -19.3% [at 9.27 µM] |
| COc1ccc(Cn2c(C(=O)O)c(CNC3CCCC3)c3ccc(OC)cc32)cc1 | inactive |  |
| Clc1ccc(CSc2ncnc3nc[nH]c23)cc1 | inconclusive: 18.4 µM [falling, single point] |  |
| CCn1c2ccccc2c(=O)c2ccccc21 | inconclusive: 20.6 µM [falling, partial curve] |  |
| CCN1C(=O)c2ccccc2Sc2ccc(NC(=O)N3CCN(c4cc(C)ccc4C)CC3)cc21 | inconclusive: 25.9 µM [falling, single point] |  |
| CN1CCC(OC(=O)COc2ccc(Br)cc2)CC1 | inactive |  |

Some of the entries so far, field by field.
CCn1c2ccccc2c(=O)c2ccccc21
  Potency: inconclusive: 20.6 µM [falling, partial curve]
CCN1C(=O)c2ccccc2Sc2ccc(NC(=O)N3CCN(c4cc(C)ccc4C)CC3)cc21
  Potency: inconclusive: 25.9 µM [falling, single point]
CN1CCC(OC(=O)COc2ccc(Br)cc2)CC1
  Potency: inactive

Next part

| SMILES | Potency | activity change, negative = inhibition |
| --- | --- | --- |
| Cc1ccccc1-c1nc2cc(Cl)ccc2o1 | inconclusive: 18.4 µM [activator, single point] |  |
| COc1ccc(-c2nn(-c3ccccc3)cc2/C=N/NC(=S)NC(C)C)cc1OC | inconclusive: 13 µM [falling, partial curve] |  |
| COCCn1c(=O)[nH]c2cc(C(=O)Nc3cccc(F)c3)ccc2c1=O | inconclusive: 23.1 µM [activator, single point] |  |
| COc1ccccc1C1Nc2c(sc3nc(C)cc(C)c23)C(=O)N1c1ccccc1 (centres undefined) | inactive |  |
| Cc1ccc(-c2onc3ccc(C=O)cc23)cc1 | inconclusive: 0.164 µM [activator, full curve, poor fit] |  |
| COc1ccc2c(c1)c1c(c(=O)n(-c3ccc(C)cc3)c(=O)n1CC(=O)NCc1ccc(C)cc1)n2C | inactive |  |
| CCN1C(=O)[C@H]2[C@@H](c3ccc(SC4CCCCC4)c(OC)c3)N3CCCC[C@@]3(C(=O)OC)[C@H]2C1=O | inconclusive: 29.1 µM [falling, single point] |  |
| O=C(Nc1cccc(/C=C/c2ccccn2)c1)c1cc(Cl)ccn1 | inconclusive: 2.59 µM [activator, partial curve, poor fit] |  |
| O=C(NC(c1cccnc1)C(F)(F)F)c1cc(COc2ccc3c(c2)CCCC3)on1 (centres undefined) | inconclusive: 29.1 µM [falling, single point] |  |
| COc1ccc(Cl)cc1NC(=O)c1nnn(Cc2cccc(C(F)(F)F)c2)c1N | inconclusive: 0.58 µM [activator, full curve] |  |
| COc1ccc(-c2nn(-c3ccccc3)cc2CNCc2cccnc2)c(F)c1 | inconclusive: 29.1 µM [activator, single point] |  |
| CCOC(=O)N1CCC(NC(=O)c2cc(COc3c(C)cccc3C)on2)CC1 | inconclusive: 18.4 µM [falling, partial curve] |  |
| C#CCN1C(C)=C(C(=O)OC)C(c2cccc([N+](=O)[O-])c2)C(C(=O)OCC)=C1C (centres undefined) | inconclusive: 18.4 µM [falling, single point] |  |
| COc1ccc(OCC(=O)Nc2cc(-c3nc4ccccc4s3)ccc2C)cc1 | inconclusive: 2.91 µM [activator, full curve] |  |
| Cc1onc(-c2ccccc2)c1C(=O)c1ccccc1 | inconclusive: 7.31 µM [activator, full curve, poor fit] |  |
| Nn1c(COc2ccc(Cl)cc2)nc2ccccc2c1=O | inconclusive: 3.26 µM [activator, full curve] |  |
| COc1ccc(COC(=O)C2=C(C)NC(=O)NC2c2cccc(Br)c2)cc1 (centres undefined) | inconclusive: 1.84 µM [falling, full curve] |  |
| CN(Cc1cccc(F)c1)C(=O)c1ccc(S(=O)(=O)N2CCCCCC2)cc1 | active: 23.1 µM |  |
| CCOc1cc(/C=C2\SC(N3CCCC(C)C3)=NC2=O)ccc1O (centres undefined) | inconclusive: 29.1 µM [activator, single point] |  |
| Cc1ccccc1OCC(=O)Nc1ccc2nc(SCC(=O)N3CCc4ccccc43)sc2c1 | inconclusive: 18.4 µM [activator, partial curve, poor fit] |  |
